According to patent publication US12441768B2, “Compositions and methods for treating endometriosis” (EndoMet Biosciences, Inc., priority 2018, dated 2025):
Not every detail of the peptide structures is certain; ends, links or a residue may be inferred. Where a SMILES comes first, the peptide text is derived from it.

How the values were obtained:
β-catenin = target: T1, β-catenin (Homo sapiens, UniProt P35222); assay: KD50 measurement using competitive fluorescence polarization (FP) with labelled TCF4; format: binding
T1 sequence (P35222 1-781): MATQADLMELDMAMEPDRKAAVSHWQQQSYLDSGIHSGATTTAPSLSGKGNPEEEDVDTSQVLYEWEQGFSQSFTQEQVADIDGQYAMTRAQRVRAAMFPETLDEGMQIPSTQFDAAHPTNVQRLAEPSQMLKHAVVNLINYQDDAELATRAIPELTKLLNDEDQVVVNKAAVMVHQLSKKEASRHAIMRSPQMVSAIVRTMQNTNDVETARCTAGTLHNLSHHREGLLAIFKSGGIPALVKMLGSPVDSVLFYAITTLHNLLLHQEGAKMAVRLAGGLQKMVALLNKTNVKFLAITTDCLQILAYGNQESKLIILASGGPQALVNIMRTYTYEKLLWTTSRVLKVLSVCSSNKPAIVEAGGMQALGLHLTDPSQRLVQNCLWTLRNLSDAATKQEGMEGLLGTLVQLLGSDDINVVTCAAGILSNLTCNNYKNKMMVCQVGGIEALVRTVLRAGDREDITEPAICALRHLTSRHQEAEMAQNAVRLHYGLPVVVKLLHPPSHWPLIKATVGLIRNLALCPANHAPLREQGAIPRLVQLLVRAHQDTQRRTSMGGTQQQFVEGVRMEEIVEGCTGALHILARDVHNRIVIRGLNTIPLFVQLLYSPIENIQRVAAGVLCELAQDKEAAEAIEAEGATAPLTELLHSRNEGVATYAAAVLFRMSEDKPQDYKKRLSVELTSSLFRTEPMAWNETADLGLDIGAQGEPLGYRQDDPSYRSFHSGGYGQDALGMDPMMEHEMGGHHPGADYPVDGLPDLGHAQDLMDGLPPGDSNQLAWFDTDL
Source text: Fluorescence polarization (FP) is another method used to analyze protein-ligand interactions. This methodology measures the change in fluorescence light emitted by a labelled compound free vs. conjugated to another compound in solution. Upon binding of the fluorescent molecule to a complex, polarization increases because of limited rotation of the fluorescent tracer. Competitive FP is often utilized in drug screens as it is formatted for high throughput screens in a plate format. This immunoassay is performed by introducing a non-conjugated drug to compete for binding to the labelled competitor-ligand complex, leading to a reduction in polarization. TCF4 protein is utilized for the competitive assay as (1) this protein influences the full activation of the Wnt pathway and (2) shares homology with the β-catenin inhibitors. Exemplary methodology is described in Example 13. Data were analyzed and plotted in Microsoft Excel (Microsoft, Redmond, WA).
5 nM of labelled TCF4 protein was added to solution of 100 nM of β-catenin and incubated at room temperature in 96-well plates (Greiner 96 Flat transparent plates, Millipore Sigma, Carlsbad CA). Varying concentrations of β-catenin inhibitor candidate (SEQ ID NO: 404) were then added in a series of serial dilutions from 10 nM to 30 uM of inhibitor in different wells of the plate. The fluorescence polarization was read by Infinite M1000 (Tecan, Baldwin Park CA) at excitation wavelength of 470 nm and measured at emission wavelength of 520 nm. […] The experiments were performed three times and data were analyzed and plotted in Microsoft Excel (Microsoft, Redmond, WA).

[1] = target: Wnt-responsive promoter (TCF/LEF); assay: Wnt-dependent luciferase reporter assay; format: cell-based, murine
Procedure: The luciferase reporter assay is commonly used as a tool to study gene expression at the transcriptional level. Peptides from libraries described herein were characterized for ability to suppress transcription in cells with luciferase expression controlled by a Wnt-responsive promoter. Peptides were added to cells transfected with luciferase gene downstream of a Wnt-responsive promoter. Cells were stimulated with Wnt3a protein and incubated with peptides from libraries described herein. Luminescence was recorded to determine the peptides with the highest β-catenin-inhibiting activity. EC50 values were calculated based on the inhibition of luminescence and expressed as concentration (uM) in Table 5.
Peptides were assessed for their ability to inhibit Wnt signaling. Murine 3T3 fibroblasts that express luciferase under a Wnt-responsive promoter (TCF/LEF) (Enzo Life Sciences, Farmingdale, NY) were stimulated with Wnt3a in the presence of increasing concentrations of peptide inhibitor (Hit 1: SEQ ID NO:217, Hit 2: SEQ ID NO:224, Hit 3: SEQ ID NO:228, Hit 4: SEQ ID NO:227, Hit 5: SEQ ID NO:220, Hit 6: SEQ ID NO:168. Hit 7: SEQ ID NO:226) or with vehicle control (FIG. 2A).

For CCCCCCCCCCCC(=O)N[C@@H](Cc1c[nH]c2ccccc12)C(=O)N1CCC[C@H]1C(=O)N[C@@H](CCC(N)=O)C(=O)N[C@@H](CO)C(=O)N[C@H](C(=O)N[C@@H](CC(C)C)C(=O)N[C@@H](CC(=O)O)C(=O)N[C@H]1CCCCNC(=O)C[C@@H](C(=O)N[C@H](C(=O)N[C@@H](Cc2c[nH]c3ccccc23)C(N)=O)C(C)C)NC(=O)[C@H](CCC(N)=O)NC(=O)[C@H](C2CCCCC2)NC(=O)[C@H](Cc2c[nH]cn2)NC1=O)[C@@H](C)CC [compound 463] (HELM PEPTIDE1{[CCCCCCCCCCCC(=O)[*:2]].W.P.Q.S.I.L.D.K.H.[O=C([C@@H](N[*:1])C1CCCCC1)[*:2]].Q.D.V.W.[am]}$PEPTIDE1,PEPTIDE1,9:R3-13:R3$$$V2.0), the “β-Cat FP Hill slope” value (β-catenin) was 0.78 and the EC50 [1] was < 7.5 µM.

With CCCCCCCCCCCC(=O)N[C@@H](Cc1c[nH]c2ccccc12)C(=O)N(C)[C@@H](C)C(=O)N[C@@H](CCC(N)=O)C(=O)N[C@@H](CO)C(=O)N[C@H](C(=O)N[C@@H](CC(C)C)C(=O)N[C@@H](CC(=O)O)C(=O)N[C@H]1CCCCNC(=O)C[C@@H](C(=O)N[C@H](C(=O)N[C@@H](Cc2c[nH]c3ccccc23)C(N)=O)C(C)C)NC(=O)[C@H](CCC(N)=O)NC(=O)[C@H](C2CCCCC2)NC(=O)[C@H](Cc2c[nH]cn2)NC1=O)[C@@H](C)CC [compound 461] (HELM PEPTIDE1{[CCCCCCCCCCCC(=O)[*:2]].W.[meA].Q.S.I.L.D.K.H.[O=C([C@@H](N[*:1])C1CCCCC1)[*:2]].Q.D.V.W.[am]}$PEPTIDE1,PEPTIDE1,9:R3-13:R3$$$V2.0) the “β-Cat FP Hill slope” value (β-catenin) was 1.06 and the EC50 [1] was < 7.5 µM.

With CCCCCCCCCCCC(=O)N[C@@H](CCC(=O)O)C(=O)N[C@@H](CC(=O)O)C(=O)N1CCC[C@H]1C(=O)N[C@@H](CCC(N)=O)C(=O)N[C@H]1CCCCNC(=O)CC[C@@H](C(=O)N[C@@H](Cc2c[nH]cn2)C(=O)N[C@@H](CC(C)C)C(=O)N[C@@H](CCC(N)=O)C(=O)N[C@@H](CCCNC(=N)N)C(=O)N[C@H](C(=O)N[C@@H](CC(C)C)C(=O)N[C@@H](CCCCN)C(N)=O)C(C)C)NC(=O)[C@H](CC(=O)O)NC(=O)[C@H](CC(C)C)NC(=O)[C@H]([C@@H](C)CC)NC1=O [compound 444] (HELM PEPTIDE1{[CCCCCCCCCCCC(=O)[*:2]].E.D.P.Q.K.I.L.D.E.H.L.Q.R.V.L.K.[am]}$PEPTIDE1,PEPTIDE1,6:R3-10:R3$$$V2.0) the “β-Cat FP Hill slope” value (β-catenin) was 0.7 and the EC50 [1] was > 30 µM.

CCCCCCCCCCCC(=O)N[C@@H](Cc1c[nH]c2ccccc12)C(=O)N(C)[C@@H](C)C(=O)N[C@@H](CCC(N)=O)C(=O)N[C@@H](CO)C(=O)N[C@H](C(=O)N[C@@H](CC(C)C)C(=O)N[C@@H](CC(=O)O)C(=O)N[C@H]1CCC(=O)NCCCC[C@@H](C(=O)N[C@H](C(=O)N[C@@H](Cc2c[nH]c3ccccc23)C(=O)NCC(N)=O)C(C)C)NC(=O)[C@H](CCC(N)=O)NC(=O)[C@H](C2CCCCC2)NC(=O)[C@H](Cc2c[nH]cn2)NC1=O)[C@@H](C)CC [compound 471] (HELM PEPTIDE1{[CCCCCCCCCCCC(=O)[*:2]].W.[meA].Q.S.I.L.D.E.H.[O=C([C@@H](N[*:1])C1CCCCC1)[*:2]].Q.K.V.W.G.[am]}$PEPTIDE1,PEPTIDE1,9:R3-13:R3$$$V2.0) was tested, and the “β-Cat FP Hill slope” value (β-catenin) was 1.07 and the EC50 [1] was < 7.5 µM.

In the case of CCCCCCCCCCCC(=O)N[C@@H](Cc1c[nH]c2ccccc12)C(=O)N(C)[C@@H](C)C(=O)N[C@@H](CCC(N)=O)C(=O)N[C@H]1CCCCNC(=O)C[C@@H](C(=O)N[C@@H](Cc2c[nH]cn2)C(=O)N[C@H](C(=O)N[C@@H](CCC(N)=O)C(=O)N[C@@H](CCCNC(=N)N)C(=O)N[C@H](C(=O)N[C@@H](Cc2c[nH]c3ccccc23)C(=O)NCC(N)=O)C(C)C)C2CCCCC2)NC(=O)[C@H](CC(=O)O)NC(=O)[C@H](CC(C)C)NC(=O)[C@H]([C@@H](C)CC)NC1=O [compound 432] (HELM PEPTIDE1{[CCCCCCCCCCCC(=O)[*:2]].W.[meA].Q.K.I.L.D.D.H.[O=C([C@@H](N[*:1])C1CCCCC1)[*:2]].Q.R.V.W.G.[am]}$PEPTIDE1,PEPTIDE1,5:R3-9:R3$$$V2.0), the “β-Cat FP Hill slope” value (β-catenin) is reported as 2.03 and the EC50 [1] is reported as 7.5 to 15 µM.

For CCCCCCCCCCCC(=O)N[C@@H](Cc1c[nH]c2ccccc12)C(=O)N(C)[C@@H](C)C(=O)N[C@@H](CCC(N)=O)C(=O)N[C@H]1CCCCNC(=O)CC[C@@H](C(=O)N[C@@H](Cc2c[nH]cn2)C(=O)N[C@H](C(=O)N[C@@H](CCC(N)=O)C(=O)N[C@@H](CCCNC(=N)N)C(=O)N[C@H](C(=O)N[C@@H](Cc2c[nH]c3ccccc23)C(N)=O)C(C)C)C2CCCCC2)NC(=O)[C@H](CC(=O)O)NC(=O)[C@H](CC(C)C)NC(=O)[C@H]([C@@H](C)CC)NC1=O [compound 447] (HELM PEPTIDE1{[CCCCCCCCCCCC(=O)[*:2]].W.[meA].Q.K.I.L.D.E.H.[O=C([C@@H](N[*:1])C1CCCCC1)[*:2]].Q.R.V.W.[am]}$PEPTIDE1,PEPTIDE1,5:R3-9:R3$$$V2.0), the “β-Cat FP Hill slope” value (β-catenin) was 0.92 and the EC50 [1] was < 7.5 µM.

CCCCCCCCCCCC(=O)N[C@@H](Cc1c[nH]c2ccccc12)C(=O)N(C)[C@@H](C)C(=O)N[C@@H](CCC(N)=O)C(=O)N[C@@H](CO)C(=O)N[C@H](C(=O)N[C@@H](CC(C)C)C(=O)N[C@@H](CC(=O)O)C(=O)N[C@H]1CCC(=O)NCCCC[C@@H](C(=O)N[C@H](C(=O)N[C@@H](Cc2c[nH]c3ccccc23)C(N)=O)C(C)C)NC(=O)[C@H](CCC(N)=O)NC(=O)[C@H](C2CCCCC2)NC(=O)[C@H](Cc2c[nH]cn2)NC1=O)[C@@H](C)CC [compound 467] (HELM PEPTIDE1{[CCCCCCCCCCCC(=O)[*:2]].W.[meA].Q.S.I.L.D.E.H.[O=C([C@@H](N[*:1])C1CCCCC1)[*:2]].Q.K.V.W.[am]}$PEPTIDE1,PEPTIDE1,9:R3-13:R3$$$V2.0) was tested, and the “β-Cat FP Hill slope” value (β-catenin) was 0.94 and the EC50 [1] was < 7.5 µM.

For CC[C@H](C)[C@H](NC(=O)[C@H](CC(C)C)NC(=O)[C@H](Cc1ccccc1)NC(=O)[C@H](Cc1c[nH]c2ccccc12)NC(=O)[C@@H](N)CCSC)C(=O)N[C@@H](CS)C(=O)N[C@@H](Cc1ccccc1)C(=O)N[C@@H](Cc1c[nH]c2ccccc12)C(=O)N(C)CC(=O)O [compound 213] (HELM PEPTIDE1{M.W.F.L.I.C.F.W.[Sar]}$$$$V2.0), the “β-Cat FP Hill slope” value (β-catenin) was 0.7 and the EC50 [1] was < 7.5 µM.

CCCCCCCCCCCC(=O)N[C@@H](Cc1c[nH]c2ccccc12)C(=O)N1CCC[C@H]1C(=O)N[C@@H](CCC(N)=O)C(=O)N[C@@H](CO)C(=O)N[C@H](C(=O)N[C@@H](CC(C)C)C(=O)N[C@@H](CC(=O)O)C(=O)N[C@H]1CCC(=O)NCCCC[C@@H](C(=O)N[C@H](C(=O)N[C@@H](Cc2c[nH]c3ccccc23)C(N)=O)C(C)C)NC(=O)[C@H](CCC(N)=O)NC(=O)[C@H](C2CCCCC2)NC(=O)[C@H](Cc2c[nH]cn2)NC1=O)[C@@H](C)CC [compound 469] (HELM PEPTIDE1{[CCCCCCCCCCCC(=O)[*:2]].W.P.Q.S.I.L.D.E.H.[O=C([C@@H](N[*:1])C1CCCCC1)[*:2]].Q.K.V.W.[am]}$PEPTIDE1,PEPTIDE1,9:R3-13:R3$$$V2.0) was tested, and the “β-Cat FP Hill slope” value (β-catenin) was 0.98 and the EC50 [1] was < 7.5 µM.
